Results are given in words; binding and its absence hold for the method and conditions named. In cells and extracts the contact can be indirect. Some binding calls cover weakened binding; strength is not graded here.
Columns and labels:
Assay in all cases: co-IP; anti-FLAG antibody on Protein G magnetic beads incubated with 250 ug RIPA-soluble extract of transfected SH-SY5Y cells (harvested the day after transfection) for 1 h at 4 °C, washed in PBS-T, western blot
C975Vfs*73 KIF5A (human) = C975Vfs*73 KIF5A (human) (UniProt Q12840)
N999Vfs*40 KIF5A (human) = N999Vfs*40 KIF5A (human) (UniProt Q12840)
R17Q KIF5A (human) = R17Q KIF5A (human) (UniProt Q12840)

By UniProt entry, the sequences of proteins in these tests, tags left out. Where a name states a change or a piece, a line headed by the entry shows the natural chain unless it says otherwise. Chains listed by the source or under a name are the forms on record and can include a tag or linker.
UniProt Q12840: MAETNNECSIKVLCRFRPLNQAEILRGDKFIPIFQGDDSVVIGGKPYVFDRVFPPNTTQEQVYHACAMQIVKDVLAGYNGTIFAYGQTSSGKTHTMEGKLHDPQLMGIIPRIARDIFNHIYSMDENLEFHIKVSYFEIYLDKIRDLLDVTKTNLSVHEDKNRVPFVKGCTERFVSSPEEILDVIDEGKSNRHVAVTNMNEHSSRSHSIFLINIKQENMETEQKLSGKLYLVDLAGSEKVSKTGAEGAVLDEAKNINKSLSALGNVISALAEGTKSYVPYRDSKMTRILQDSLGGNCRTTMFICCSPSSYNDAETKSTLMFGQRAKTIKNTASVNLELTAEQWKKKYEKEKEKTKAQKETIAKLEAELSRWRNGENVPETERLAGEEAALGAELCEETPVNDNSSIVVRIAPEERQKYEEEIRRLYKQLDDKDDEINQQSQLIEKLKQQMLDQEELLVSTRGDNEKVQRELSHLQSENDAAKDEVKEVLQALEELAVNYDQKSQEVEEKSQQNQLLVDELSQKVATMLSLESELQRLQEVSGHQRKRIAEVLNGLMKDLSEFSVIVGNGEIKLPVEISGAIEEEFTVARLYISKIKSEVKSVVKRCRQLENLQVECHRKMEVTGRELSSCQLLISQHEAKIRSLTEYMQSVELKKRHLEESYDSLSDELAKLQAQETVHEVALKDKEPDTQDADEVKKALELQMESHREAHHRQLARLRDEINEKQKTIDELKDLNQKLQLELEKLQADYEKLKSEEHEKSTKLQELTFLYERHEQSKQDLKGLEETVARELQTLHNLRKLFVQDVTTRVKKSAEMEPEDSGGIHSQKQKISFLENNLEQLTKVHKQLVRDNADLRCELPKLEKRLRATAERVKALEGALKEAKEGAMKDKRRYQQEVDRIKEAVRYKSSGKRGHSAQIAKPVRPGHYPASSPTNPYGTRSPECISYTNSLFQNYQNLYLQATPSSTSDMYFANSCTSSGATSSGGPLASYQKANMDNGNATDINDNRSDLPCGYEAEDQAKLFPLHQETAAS
C975Vfs*73 KIF5A (Q12840, form named): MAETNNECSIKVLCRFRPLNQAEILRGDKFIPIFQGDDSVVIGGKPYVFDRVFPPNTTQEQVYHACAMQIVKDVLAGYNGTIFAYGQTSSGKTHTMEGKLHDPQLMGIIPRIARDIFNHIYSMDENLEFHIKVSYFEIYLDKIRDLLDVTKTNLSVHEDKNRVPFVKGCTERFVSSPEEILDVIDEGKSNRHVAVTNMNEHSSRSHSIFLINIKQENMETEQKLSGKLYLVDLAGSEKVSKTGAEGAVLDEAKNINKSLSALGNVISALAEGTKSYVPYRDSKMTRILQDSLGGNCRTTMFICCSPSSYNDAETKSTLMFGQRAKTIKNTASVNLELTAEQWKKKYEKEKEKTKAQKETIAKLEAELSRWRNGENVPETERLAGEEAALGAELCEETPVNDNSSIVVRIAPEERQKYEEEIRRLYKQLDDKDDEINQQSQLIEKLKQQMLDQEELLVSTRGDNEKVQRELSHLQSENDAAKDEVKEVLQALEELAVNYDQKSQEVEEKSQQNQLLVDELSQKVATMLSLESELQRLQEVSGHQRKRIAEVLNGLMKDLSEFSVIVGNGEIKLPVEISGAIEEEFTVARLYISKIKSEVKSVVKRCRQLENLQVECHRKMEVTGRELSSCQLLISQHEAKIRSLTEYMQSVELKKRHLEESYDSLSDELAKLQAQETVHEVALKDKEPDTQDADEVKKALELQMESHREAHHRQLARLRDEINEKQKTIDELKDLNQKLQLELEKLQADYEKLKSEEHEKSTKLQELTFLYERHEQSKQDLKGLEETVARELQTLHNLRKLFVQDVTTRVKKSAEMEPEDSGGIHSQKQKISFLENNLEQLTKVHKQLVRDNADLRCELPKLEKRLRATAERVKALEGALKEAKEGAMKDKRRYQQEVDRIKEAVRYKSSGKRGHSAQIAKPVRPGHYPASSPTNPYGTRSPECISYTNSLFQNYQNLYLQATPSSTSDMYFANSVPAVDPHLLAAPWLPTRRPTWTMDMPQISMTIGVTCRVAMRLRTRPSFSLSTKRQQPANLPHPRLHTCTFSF
N999Vfs*40 KIF5A (Q12840, form named): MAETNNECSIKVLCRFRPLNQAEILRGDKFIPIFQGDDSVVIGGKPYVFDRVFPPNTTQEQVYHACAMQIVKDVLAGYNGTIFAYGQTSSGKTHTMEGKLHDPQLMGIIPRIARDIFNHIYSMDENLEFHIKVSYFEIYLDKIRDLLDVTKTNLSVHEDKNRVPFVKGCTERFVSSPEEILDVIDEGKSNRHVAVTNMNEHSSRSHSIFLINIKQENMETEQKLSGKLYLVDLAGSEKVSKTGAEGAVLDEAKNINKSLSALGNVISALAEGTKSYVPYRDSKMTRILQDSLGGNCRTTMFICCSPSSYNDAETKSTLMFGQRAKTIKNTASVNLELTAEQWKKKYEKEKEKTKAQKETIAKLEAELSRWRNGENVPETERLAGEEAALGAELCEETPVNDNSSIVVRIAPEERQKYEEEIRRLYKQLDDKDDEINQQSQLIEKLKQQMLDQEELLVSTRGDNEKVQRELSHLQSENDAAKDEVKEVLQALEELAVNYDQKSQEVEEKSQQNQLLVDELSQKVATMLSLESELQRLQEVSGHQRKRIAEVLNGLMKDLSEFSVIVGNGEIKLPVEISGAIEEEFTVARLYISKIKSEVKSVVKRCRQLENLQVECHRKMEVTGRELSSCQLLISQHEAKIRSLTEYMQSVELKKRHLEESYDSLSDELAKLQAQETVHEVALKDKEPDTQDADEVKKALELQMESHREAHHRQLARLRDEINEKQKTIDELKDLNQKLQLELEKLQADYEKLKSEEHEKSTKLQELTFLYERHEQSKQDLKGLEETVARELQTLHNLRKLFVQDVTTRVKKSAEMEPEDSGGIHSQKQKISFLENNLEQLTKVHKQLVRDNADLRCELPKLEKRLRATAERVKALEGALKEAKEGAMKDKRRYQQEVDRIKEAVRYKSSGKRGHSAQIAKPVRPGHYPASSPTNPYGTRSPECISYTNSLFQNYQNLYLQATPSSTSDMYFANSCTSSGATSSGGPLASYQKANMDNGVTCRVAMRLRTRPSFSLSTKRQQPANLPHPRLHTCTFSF

Row | Substance | binding (C975Vfs*73 KIF5A (human)) | binding (N999Vfs*40 KIF5A (human)) | binding (R17Q KIF5A (human))
1 | SQSTM1/p62 (from UniProt Q13501 1-440) | binds | binds | –
2 | wild-type (WT) KIF5A (from UniProt Q12840 1-1032) | – | binds | binds

Source: PMC11437142
